Assay results reported in the supplement of paper PMC12819154, “High-throughput peptide-centric local stability assay extends protein–ligand identification to membrane proteins, tissues and bacteria” (Nature Structural & Molecular Biology, 2025).
Some of the results follow. Small differences around the control level are noise.

By UniProt entry, the sequences of proteins in these tests, tags left out. Where a name states a change or a piece, a line headed by the entry shows the natural chain unless it says otherwise.
UniProt Q8BK64, whole entry: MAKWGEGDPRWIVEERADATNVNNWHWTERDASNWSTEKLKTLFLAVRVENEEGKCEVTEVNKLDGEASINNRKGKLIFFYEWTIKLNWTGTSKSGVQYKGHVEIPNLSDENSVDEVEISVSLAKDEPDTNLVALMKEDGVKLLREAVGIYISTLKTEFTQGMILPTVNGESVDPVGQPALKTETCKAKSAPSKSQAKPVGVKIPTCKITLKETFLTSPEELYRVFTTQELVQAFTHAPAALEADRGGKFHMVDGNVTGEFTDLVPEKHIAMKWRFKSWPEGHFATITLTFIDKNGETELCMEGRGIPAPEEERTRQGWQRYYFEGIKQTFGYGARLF
UniProt Q8BL06: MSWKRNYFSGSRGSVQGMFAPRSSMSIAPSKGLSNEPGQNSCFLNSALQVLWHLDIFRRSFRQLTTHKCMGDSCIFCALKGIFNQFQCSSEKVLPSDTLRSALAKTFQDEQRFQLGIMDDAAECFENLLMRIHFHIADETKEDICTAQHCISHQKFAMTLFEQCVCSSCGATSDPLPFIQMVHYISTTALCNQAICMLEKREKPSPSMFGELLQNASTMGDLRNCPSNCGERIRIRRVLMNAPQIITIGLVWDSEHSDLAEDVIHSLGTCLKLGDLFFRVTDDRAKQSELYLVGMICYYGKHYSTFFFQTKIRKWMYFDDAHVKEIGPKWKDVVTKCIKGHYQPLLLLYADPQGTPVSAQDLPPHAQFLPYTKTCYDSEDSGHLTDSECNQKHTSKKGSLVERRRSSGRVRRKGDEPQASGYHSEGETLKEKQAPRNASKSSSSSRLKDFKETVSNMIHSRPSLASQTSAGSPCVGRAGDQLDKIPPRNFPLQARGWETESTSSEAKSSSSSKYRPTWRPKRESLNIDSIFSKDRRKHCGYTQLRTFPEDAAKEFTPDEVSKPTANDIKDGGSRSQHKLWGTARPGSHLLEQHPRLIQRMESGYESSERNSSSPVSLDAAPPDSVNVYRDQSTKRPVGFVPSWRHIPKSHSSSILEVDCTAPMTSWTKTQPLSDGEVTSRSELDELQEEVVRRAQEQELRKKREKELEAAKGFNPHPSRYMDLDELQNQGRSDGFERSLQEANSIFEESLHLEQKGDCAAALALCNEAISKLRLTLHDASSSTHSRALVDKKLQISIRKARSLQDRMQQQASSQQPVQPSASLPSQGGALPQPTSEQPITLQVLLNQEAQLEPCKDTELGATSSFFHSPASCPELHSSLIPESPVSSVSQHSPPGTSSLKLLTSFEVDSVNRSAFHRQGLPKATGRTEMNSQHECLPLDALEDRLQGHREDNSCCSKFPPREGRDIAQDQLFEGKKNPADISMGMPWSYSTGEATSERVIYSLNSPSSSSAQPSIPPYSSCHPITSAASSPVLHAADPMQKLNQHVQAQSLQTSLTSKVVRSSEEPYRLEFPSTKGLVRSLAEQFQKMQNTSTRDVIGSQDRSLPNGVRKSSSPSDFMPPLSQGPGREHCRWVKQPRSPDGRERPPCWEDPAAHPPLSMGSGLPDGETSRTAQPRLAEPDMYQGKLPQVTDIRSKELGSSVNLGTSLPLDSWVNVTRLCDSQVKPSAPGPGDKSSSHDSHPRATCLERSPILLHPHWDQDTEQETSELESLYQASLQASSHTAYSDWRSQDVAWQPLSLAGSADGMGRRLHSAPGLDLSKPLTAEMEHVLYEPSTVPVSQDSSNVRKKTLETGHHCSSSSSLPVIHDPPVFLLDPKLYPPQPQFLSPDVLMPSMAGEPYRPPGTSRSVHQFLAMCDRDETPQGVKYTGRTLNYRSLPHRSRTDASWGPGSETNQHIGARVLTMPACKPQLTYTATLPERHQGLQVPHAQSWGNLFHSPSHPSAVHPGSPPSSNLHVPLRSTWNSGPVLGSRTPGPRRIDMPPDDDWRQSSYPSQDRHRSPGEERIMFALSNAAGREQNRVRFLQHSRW
UniProt Q8BU85: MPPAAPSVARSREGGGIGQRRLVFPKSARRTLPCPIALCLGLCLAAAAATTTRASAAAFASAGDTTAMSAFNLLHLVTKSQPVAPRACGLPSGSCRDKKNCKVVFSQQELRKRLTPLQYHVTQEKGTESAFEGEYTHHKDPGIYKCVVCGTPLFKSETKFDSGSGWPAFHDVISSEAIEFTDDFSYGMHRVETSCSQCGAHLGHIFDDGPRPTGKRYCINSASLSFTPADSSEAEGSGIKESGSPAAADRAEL
UniProt Q8BIH0: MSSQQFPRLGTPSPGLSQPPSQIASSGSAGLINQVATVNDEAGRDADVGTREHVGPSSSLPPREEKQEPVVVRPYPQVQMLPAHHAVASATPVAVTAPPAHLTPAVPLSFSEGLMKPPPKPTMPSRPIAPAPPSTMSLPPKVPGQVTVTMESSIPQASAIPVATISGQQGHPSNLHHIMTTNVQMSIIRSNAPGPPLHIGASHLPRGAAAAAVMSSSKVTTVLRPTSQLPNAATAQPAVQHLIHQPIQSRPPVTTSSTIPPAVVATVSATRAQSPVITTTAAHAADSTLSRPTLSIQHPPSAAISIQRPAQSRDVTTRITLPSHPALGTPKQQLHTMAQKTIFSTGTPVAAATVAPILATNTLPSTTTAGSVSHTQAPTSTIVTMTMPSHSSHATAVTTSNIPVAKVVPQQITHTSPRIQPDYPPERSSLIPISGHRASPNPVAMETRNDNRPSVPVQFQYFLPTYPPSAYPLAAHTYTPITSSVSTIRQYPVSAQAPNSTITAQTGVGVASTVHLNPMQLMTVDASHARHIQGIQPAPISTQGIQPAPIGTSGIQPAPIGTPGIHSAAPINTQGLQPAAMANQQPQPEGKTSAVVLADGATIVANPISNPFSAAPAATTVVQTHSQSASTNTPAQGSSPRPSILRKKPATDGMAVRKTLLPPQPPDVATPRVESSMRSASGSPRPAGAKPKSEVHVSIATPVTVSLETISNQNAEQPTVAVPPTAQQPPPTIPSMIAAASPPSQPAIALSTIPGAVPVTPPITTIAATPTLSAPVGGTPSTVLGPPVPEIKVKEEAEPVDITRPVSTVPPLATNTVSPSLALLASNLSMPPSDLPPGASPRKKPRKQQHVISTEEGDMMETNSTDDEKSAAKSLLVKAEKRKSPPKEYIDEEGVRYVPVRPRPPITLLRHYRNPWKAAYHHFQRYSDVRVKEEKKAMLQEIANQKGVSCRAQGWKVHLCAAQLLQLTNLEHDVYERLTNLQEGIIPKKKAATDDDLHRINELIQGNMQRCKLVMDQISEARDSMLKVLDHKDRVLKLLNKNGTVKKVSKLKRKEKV
UniProt Q8BIJ7: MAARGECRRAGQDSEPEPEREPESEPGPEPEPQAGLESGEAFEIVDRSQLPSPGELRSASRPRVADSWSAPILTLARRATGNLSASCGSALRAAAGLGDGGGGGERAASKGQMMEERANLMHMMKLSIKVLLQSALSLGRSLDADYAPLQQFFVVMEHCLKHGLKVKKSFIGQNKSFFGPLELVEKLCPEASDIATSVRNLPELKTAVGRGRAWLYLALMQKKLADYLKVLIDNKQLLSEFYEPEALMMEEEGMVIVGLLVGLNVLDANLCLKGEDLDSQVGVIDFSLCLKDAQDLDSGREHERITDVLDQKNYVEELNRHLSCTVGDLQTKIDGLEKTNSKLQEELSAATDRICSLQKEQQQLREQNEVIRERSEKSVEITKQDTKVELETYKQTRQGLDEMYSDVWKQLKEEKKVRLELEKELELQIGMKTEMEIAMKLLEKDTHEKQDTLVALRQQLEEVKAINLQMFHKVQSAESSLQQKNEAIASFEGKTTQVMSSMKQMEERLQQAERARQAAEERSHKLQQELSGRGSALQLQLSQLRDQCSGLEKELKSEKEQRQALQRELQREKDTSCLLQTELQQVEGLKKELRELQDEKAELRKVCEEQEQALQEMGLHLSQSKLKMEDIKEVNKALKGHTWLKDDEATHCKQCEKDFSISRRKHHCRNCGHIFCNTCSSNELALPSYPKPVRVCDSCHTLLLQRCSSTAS
UniProt Q8BJ34: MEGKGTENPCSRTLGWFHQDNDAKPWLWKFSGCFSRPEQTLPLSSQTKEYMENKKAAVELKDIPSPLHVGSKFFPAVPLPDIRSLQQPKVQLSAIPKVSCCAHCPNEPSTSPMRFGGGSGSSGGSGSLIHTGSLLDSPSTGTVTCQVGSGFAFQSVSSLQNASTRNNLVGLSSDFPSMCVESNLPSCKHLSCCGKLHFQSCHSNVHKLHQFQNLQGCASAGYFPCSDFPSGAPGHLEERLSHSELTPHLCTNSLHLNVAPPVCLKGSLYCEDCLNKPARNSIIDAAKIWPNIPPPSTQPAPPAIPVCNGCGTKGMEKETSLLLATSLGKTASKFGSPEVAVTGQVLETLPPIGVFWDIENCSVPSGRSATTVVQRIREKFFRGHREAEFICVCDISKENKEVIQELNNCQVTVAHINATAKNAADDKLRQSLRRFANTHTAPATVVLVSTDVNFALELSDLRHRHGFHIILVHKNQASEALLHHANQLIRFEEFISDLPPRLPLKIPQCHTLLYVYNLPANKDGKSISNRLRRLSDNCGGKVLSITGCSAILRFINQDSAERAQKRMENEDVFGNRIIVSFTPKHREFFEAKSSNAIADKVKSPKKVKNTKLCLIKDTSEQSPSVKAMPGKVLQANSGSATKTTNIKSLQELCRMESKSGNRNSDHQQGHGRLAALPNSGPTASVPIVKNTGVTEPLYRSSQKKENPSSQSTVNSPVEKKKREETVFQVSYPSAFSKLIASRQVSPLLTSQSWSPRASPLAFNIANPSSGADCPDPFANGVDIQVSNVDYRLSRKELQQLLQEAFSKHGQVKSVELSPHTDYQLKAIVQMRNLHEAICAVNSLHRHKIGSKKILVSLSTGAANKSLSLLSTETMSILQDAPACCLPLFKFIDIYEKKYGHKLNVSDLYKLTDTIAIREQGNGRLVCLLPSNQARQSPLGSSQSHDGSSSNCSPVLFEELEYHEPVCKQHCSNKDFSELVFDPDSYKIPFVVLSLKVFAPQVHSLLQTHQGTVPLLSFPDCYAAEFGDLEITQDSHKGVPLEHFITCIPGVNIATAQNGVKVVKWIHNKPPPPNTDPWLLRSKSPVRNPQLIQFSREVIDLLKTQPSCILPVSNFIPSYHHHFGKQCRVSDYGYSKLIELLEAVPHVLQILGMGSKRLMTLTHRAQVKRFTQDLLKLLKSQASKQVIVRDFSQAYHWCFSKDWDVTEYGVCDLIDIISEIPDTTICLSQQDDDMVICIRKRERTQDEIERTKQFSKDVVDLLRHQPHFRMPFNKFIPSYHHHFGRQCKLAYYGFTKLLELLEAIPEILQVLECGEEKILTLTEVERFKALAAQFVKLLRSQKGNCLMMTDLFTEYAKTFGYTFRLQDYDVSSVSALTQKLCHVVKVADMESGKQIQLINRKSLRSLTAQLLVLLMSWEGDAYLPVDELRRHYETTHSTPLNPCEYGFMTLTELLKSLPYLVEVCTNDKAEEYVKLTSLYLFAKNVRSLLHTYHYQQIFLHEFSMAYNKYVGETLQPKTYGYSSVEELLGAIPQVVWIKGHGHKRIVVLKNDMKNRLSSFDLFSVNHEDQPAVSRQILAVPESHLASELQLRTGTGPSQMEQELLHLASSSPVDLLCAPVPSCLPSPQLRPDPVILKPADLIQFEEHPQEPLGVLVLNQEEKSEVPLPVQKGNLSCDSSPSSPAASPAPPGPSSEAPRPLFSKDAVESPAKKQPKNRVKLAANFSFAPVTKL
UniProt Q8BK75: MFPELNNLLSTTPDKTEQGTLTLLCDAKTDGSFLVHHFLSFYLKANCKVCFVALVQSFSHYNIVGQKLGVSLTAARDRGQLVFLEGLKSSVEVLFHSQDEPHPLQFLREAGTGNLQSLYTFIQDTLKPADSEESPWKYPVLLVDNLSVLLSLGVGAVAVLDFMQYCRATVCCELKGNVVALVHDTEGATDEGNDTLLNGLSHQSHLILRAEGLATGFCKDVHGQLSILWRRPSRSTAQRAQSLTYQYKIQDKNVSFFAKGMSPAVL
UniProt Q8BMQ8: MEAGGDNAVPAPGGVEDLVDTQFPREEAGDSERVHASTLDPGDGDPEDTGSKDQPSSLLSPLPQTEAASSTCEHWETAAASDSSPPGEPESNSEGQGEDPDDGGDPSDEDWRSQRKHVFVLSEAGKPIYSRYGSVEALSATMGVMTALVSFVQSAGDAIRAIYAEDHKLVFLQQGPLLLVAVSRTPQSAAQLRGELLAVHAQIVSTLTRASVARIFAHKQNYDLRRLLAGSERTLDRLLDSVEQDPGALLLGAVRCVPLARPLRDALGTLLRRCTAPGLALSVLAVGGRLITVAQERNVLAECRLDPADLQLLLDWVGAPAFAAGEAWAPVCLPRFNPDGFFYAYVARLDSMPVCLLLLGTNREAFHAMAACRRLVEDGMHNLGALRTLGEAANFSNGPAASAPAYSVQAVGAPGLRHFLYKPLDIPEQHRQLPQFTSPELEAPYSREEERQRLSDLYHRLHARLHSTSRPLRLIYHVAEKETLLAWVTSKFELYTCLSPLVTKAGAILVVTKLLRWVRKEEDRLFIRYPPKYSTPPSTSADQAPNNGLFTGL

What follows are targets tested with CN[C@@H]1C[C@H]2O[C@@](C)([C@@H]1OC)n1c3ccccc3c3c4c(c5c6ccccc6n2c5c31)C(=O)NC4 [staurosporine] (assay: log2 fold change of tryptic peptide abundance, ligand vs vehicle (limited proteolysis) (log2 ratio); higher = more trypsin-susceptible (destabilized)). Details: ligand concentration: 20 uM; sample: mouse liver crude lysate; replicate design: treated separately.
Work on “UniProt Q8BI29 (peptide sequence: GWIPTQETPPGK, peptide start residue: 426)” yielded a log2 fold change of -0.248.
For “UniProt Q8BR65 (peptide sequence: RPNDPVPIPDKR, peptide start residue: 188)”, the log2 fold change was 0.178.
In the case of “UniProt Q8BJZ4 (peptide sequence: AAESSVAPSREELLGTK, peptide start residue: 268)”, the log2 fold change is reported as -0.155.
For “UniProt Q8BK67 (peptide sequence: TARPATAGK, peptide start residue: 67)”, the log2 fold change was 0.255.
Work on “UniProt Q8BK64 (peptide sequence: DASNWSTEK, peptide start residue: 31)” yielded a log2 fold change of -0.172.
Work on “UniProt Q8BU30 (peptide sequence: FFIQNVFR, peptide start residue: 662)” yielded a log2 fold change of 0.464.
In the case of “UniProt Q8BI08 (peptide sequence: VTLPAGPDILR, peptide start residue: 22)”, the log2 fold change is reported as -0.00141.
Target “UniProt Q8BU11 (peptide sequence: TVVVETGKK, peptide start residue: 200)” has a log2 fold change of -0.154.
“UniProt Q8BQJ6 (peptide sequence: VLHGVSDTVAAHQSEGLR, peptide start residue: 109)” showed a log2 fold change of 0.46.
“UniProt Q8BL06 (peptide sequence: LTLHDASSSTHSR, peptide start residue: 774)” was tested, and the log2 fold change was 0.491.
For “UniProt Q8BKR5 (peptide sequence: TCEALEEVFKR, peptide start residue: 129)”, the log2 fold change was 0.14.
Work on “UniProt Q8BPB5 (peptide sequence: NPADPQRIPSNPSHR, peptide start residue: 142)” yielded a log2 fold change of 0.253.
Target “UniProt Q8BTZ7 (peptide sequence: IQLKPTSIEKEIFPVMAK, peptide start residue: 186)” has a log2 fold change of -0.439.
“UniProt Q8BU85 (peptide sequence: LTPLQYHVTQEK, peptide start residue: 114)” was tested, and the log2 fold change was -0.21.
Work on “UniProt Q8BMF4 (peptide sequence: ILVPEGTR, peptide start residue: 147)” yielded a log2 fold change of -0.364.
With “UniProt Q8BIH0 (peptide sequence: KAMLQEIANQK, peptide start residue: 936)” the log2 fold change was 0.385.
“UniProt Q8BIJ7 (peptide sequence: EQNEVIR, peptide start residue: 366)” was tested, and the log2 fold change was -0.193.
In the case of “UniProt Q8BJ05 (peptide sequence: KMECPFYHPK, peptide start residue: 689)”, the log2 fold change is reported as 0.404.
“UniProt Q8BUK6 (peptide sequence: LEDLGDLRR, peptide start residue: 327)” was tested, and the log2 fold change was 0.786.
With “UniProt Q8BNU0 (peptide sequence: HVCLKHEQNRQDLVK, peptide start residue: 179)” the log2 fold change was 1.01.
“UniProt Q8BQY8 (peptide sequence: IVDLACLNHFTR, peptide start residue: 7)” showed a log2 fold change of 0.47.
With “UniProt Q8BJ34 (peptide sequence: IIVSFTPK, peptide start residue: 577)” the log2 fold change was 0.293.
For “UniProt Q8BIY1 (peptide sequence: QGWAEGQGLGSR, peptide start residue: 422)”, the log2 fold change was 0.548.
With “UniProt Q8BL95 (peptide sequence: KLSDYVGK, peptide start residue: 203)” the log2 fold change was 0.0949.
With “UniProt Q8BK75 (peptide sequence: AQSLTYQYK, peptide start residue: 240)” the log2 fold change was 0.0621.
Work on “UniProt Q8BJ64 (peptide sequence: AADIIKGHPALEDK, peptide start residue: 569)” yielded a log2 fold change of -0.485.
“UniProt Q8BJ37 (peptide sequence: HVSSPDVTTAQK, peptide start residue: 116)” showed a log2 fold change of 0.0743.
“UniProt Q8BP74 (peptide sequence: LKADVLEDLR, peptide start residue: 312)” gave a log2 fold change of 0.534.
Target “UniProt Q8BMQ8 (peptide sequence: AIYAEDHK, peptide start residue: 161)” has a log2 fold change of 0.396.
“UniProt Q8BKZ9 (peptide sequence: GLITPIIKDAAAK, peptide start residue: 372)” showed a log2 fold change of 0.135.
“UniProt Q8BNX1 (peptide sequence: VLLSHQDLLR, peptide start residue: 62)” showed a log2 fold change of 0.42.
“UniProt Q8BQZ4 (peptide sequence: SEVVLEGK, peptide start residue: 623)” was tested, and the log2 fold change was -0.338.
“UniProt Q8BKC8 (peptide sequence: KLILSDELKPAHR, peptide start residue: 238)” was tested, and the log2 fold change was 0.249.
For “UniProt Q8BLH7 (peptide sequence: TLDSEEEQPR, peptide start residue: 572)”, the log2 fold change was 0.132.
Work on “UniProt Q8BI71 (peptide sequence: VAEVETER, peptide start residue: 227)” yielded a log2 fold change of -0.307.
